In article PMC5524640, “Evasion of immunosurveillance by genomic alterations of PPARγ/RXRα in bladder cancer” (Nature Communications, 2017):
Numbering of substitutions follows the chain as printed. Names and notes keep the numbering of the source. No constants are given. Whether binding was seen depends on the method and setting.

B1: His-TEV-RXRα-S427F (223-462) (domain or fragment, human, UniProt P19793 223-462, looked up)
chain: TSSANEDMPVERILEAELAVEPKTETYVEANMGLNPSSPNDPVTNICQAADKQLFTLVEWAKRIPHFSELPLDDQVILLRAGWNELLIASFSHRSIAVKDGILLATGLHVHRNSAHSAGVGAIFDRVLTELVSKMRDMQMDKTELGCLRAIVLFNPDSKGLSNPAEVEALREKVYASLEAYCKHKYPEQPGRFAKLLLRLPALRFIGLKCLEHLFFFKLIGDTPIDTFLMEMLEAPHQMT
notes: S427F is a recurrent mutation found in patients' tumours; No tag cleavage is described for this preparation; also called the mutant; source: E. coli, purified (Ni-NTA, size exclusion chromatography)
B2: His-TEV-RXRα-WT (223-462) (domain or fragment, human, UniProt P19793 223-462, looked up)
chain: B1 chain with F205S

How the values were obtained:
[1] = molecular target: T1, His-TEV-RXRα-S427F (223-462) (Homo sapiens (Human), UniProt P19793); assay: SEC; analytical, 10/300 Superdex 200; equivalent molar volumes loaded; heterodimer formed by mixing the two proteins at a 1:1 molar ratio; no ligand; both purified
T1 chain: B1 chain

[2] = molecular target: T2, His-TEV-RXRα-WT (223-462) (Homo sapiens (Human), UniProt P19793); assay: SEC; RXRα^WT with addition of 9-cis-retinoic acid (Supplementary Fig. 7b); both purified
T2 chain: B1 chain with F205S

Binder | binding [1] | binding [2]
B1 | no binding | –
B2 | – | no binding (condition: with 9-cis-retinoic acid)
